Experimental data from paper PMC10415446.
Results are given in words; binding and its absence hold for the method and conditions named. Binding seen in cells or lysates may run through a third protein. Some binding calls cover weakened binding; strength is not graded here.

Chains of the proteins cited; added tags and fusions are not shown.
UniProt P63208: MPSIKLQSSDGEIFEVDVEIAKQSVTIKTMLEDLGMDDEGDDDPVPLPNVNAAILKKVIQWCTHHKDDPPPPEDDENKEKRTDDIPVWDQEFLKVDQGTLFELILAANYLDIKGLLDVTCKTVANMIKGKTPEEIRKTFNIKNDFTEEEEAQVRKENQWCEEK

T1: mCherry-cyclin F (p.M309A/R310A) (UniProt P41002)
T1 sequence: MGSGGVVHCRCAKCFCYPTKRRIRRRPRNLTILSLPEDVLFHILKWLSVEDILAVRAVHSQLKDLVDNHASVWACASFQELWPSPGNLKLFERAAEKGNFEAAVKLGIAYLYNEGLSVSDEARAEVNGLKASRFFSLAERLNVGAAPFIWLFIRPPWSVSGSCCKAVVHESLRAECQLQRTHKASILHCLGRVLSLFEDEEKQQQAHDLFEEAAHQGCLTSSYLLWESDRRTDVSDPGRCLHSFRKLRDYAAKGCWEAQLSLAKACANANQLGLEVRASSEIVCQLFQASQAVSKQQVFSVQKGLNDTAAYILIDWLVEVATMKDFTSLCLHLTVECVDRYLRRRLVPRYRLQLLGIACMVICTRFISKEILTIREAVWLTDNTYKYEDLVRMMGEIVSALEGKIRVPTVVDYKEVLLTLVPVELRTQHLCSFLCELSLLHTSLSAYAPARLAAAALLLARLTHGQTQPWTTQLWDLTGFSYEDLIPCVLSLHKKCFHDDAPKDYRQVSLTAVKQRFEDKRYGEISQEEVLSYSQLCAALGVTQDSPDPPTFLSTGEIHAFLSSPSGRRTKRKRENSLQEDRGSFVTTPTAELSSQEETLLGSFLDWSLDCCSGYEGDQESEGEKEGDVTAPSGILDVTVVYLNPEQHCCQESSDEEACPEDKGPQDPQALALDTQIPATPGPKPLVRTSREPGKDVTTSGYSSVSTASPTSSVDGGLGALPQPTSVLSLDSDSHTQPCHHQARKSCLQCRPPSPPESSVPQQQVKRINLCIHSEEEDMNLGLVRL

T2: mCherry-cyclin F WT (UniProt P41002)
T2 sequence: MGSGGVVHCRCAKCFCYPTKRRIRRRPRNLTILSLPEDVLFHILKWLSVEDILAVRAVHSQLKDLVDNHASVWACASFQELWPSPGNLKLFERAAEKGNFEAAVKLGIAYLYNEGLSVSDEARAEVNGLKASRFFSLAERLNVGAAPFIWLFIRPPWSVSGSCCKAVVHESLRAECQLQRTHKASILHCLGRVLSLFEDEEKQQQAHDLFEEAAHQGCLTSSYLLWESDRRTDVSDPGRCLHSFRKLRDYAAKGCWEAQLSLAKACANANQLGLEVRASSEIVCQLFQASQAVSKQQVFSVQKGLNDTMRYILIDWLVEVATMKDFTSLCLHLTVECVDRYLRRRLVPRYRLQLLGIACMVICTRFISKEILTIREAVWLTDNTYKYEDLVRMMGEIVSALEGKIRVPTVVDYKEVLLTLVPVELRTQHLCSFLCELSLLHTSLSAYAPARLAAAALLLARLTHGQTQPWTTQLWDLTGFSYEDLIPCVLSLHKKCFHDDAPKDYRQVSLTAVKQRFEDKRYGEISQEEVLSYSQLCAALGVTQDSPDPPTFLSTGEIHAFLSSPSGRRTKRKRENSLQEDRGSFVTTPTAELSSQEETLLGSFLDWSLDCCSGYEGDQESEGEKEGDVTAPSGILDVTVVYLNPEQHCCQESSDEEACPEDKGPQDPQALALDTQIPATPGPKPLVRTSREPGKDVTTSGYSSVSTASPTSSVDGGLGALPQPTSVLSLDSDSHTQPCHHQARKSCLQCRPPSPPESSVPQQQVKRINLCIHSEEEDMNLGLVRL

T3: mCherry-cyclin F p.S621G (UniProt P41002)
T3 sequence: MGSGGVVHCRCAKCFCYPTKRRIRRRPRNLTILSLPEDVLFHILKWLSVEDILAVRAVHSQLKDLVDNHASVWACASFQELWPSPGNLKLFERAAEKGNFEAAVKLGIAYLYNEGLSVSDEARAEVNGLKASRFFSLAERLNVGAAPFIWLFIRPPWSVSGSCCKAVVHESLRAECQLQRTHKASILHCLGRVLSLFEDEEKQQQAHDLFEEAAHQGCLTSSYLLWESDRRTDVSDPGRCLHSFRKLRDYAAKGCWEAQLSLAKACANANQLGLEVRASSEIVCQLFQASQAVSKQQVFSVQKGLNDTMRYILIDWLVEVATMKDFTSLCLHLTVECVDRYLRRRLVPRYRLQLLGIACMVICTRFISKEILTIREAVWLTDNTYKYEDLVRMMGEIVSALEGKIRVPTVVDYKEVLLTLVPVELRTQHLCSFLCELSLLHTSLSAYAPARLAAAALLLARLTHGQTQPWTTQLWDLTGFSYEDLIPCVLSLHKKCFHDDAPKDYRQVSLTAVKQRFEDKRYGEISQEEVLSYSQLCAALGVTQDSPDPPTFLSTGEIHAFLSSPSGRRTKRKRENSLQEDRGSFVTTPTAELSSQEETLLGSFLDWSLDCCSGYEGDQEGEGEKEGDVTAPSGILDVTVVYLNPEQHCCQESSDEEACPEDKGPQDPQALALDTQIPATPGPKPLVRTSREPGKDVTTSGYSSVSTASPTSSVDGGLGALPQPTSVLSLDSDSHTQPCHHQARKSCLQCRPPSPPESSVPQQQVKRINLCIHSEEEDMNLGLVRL

T4: endogenous cyclin F (human (endogenous in HEK293)) (UniProt P41002)
T4 sequence: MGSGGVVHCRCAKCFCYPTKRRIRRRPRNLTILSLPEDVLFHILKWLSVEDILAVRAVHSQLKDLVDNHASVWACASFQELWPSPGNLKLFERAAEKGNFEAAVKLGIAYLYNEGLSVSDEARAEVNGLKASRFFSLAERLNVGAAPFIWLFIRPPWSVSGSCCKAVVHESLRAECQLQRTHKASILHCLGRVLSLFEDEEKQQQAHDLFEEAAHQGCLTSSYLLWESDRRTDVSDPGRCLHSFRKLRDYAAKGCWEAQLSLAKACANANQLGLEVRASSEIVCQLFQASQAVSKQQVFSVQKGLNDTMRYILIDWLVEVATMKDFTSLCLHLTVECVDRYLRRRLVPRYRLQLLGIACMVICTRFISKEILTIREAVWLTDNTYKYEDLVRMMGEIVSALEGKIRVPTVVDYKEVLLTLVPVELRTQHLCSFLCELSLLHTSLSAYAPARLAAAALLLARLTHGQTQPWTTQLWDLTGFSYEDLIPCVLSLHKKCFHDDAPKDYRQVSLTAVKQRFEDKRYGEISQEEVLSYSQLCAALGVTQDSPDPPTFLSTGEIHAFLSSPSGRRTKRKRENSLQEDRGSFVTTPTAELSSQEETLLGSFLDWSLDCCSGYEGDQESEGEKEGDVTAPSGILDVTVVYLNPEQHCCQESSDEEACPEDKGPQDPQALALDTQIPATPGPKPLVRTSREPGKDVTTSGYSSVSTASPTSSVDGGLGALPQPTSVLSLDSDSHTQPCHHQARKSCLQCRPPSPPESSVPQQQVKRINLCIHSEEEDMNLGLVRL

B1: cell division cycle 6 (CDC6) (protein, UniProt Q99741 1-560)
chain: MPQTRSQAQATISFPKRKLSRALNKAKNSSDAKLEPTNVQTVTCSPRVKALPLSPRKRLGDDNLCNTPHLPPCSPPKQGKKENGPPHSHTLKGRRLVFDNQLTIKSPSKRELAKVHQNKILSSVRKSQEITTNSEQRCPLKKESACVRLFKQEGTCYQQAKLVLNTAVPDRLPAREREMDVIRNFLREHICGKKAGSLYLSGAPGTGKTACLSRILQDLKKELKGFKTIMLNCMSLRTAQAVFPAIAQEICQEEVSRPAGKDMMRKLEKHMTAEKGPMIVLVLDEMDQLDSKGQDVLYTLFEWPWLSNSHLVLIGIANTLDLTDRILPRLQAREKCKPQLLNFPPYTRNQIVTILQDRLNQVSRDQVLDNAAVQFCARKVSAVSGDVRKALDVCRRAIEIVESDVKSQTILKPLSECKSPSEPLIPKRVGLIHISQVISEVDGNRMTLSQEGAQDSFPLQQKILVCSLMLLIRQLKIKEVTLGKLYEAYSKVCRKQQVAAVDQSECLSLSGLLEARGILGLKRNKETRLTKVFFKIEEKEIEHALKDKALIGNILATGLP

Key:
[1] = target: T1, mCherry-cyclin F (p.M309A/R310A); test: co-IP; HEK293 cells transiently expressing mCherry-cyclin F WT or mutants (or mCherry alone); NP-40 lysis buffer; about 500 µg cellular protein; RFP-Trap magnetic beads on the mCherry tag; endogenous partners detected by immunoblot
mCherry-cyclin F WT = target: T2, mCherry-cyclin F WT; test: as above
mCherry-cyclin F p.S621G = target: T3, mCherry-cyclin F p.S621G; test: as above
[2] = target: T4, endogenous cyclin F (human (endogenous in HEK293)); test: proximity ligation; Duolink in situ PLA on fixed, permeabilised asynchronous HEK293 cells; mouse anti-cyclin F with rabbit anti-p62 or rabbit anti-cdc6; foci (< 40 nm proximity) counted per cell

Row | Molecule | binding [1] | binding (mCherry-cyclin F WT) | binding (mCherry-cyclin F p.S621G) | binding [2]
1 | Skp1 (from UniProt P63208 1-163) | binds | binds | binds | 
2 | B1 |  | binds |  | binds
